This is an account of results in US5610185A, “Method for the treatment of hyperproliferative epithelial skin diseases by topical application of hydroxylated aromatic protein cross-linking compounds” (The United States of America as represented by the …, priority 1995, dated 1997).

Entries after “also recorded” stand apart in the source; their conditions may differ.

In the assay the test system is primary mouse keratinocytes. Put plainly: Cornified envelope (cross-linked protein) assay, primary mouse keratinocytes. The class given is cell-based. Particulars: LTB 2 and HPB 2 at 100 μM; MC 75 or 1000 μM or staurosporine 10 nM; 48 hours. The method, then:
FIGS. 3A and 3B. A: Time course for cornification of primary mouse keratinocytes in response to MC. Boxes represent […] Ca^2+, triangles represent 100 μM MC, 1.4 mM Ca^2+, and solid circles represent 1 mM MC, 1.4 mM Ca^2+. […] Cells were incubated in medium with 1.4 mM Ca^2+ and MC for 4 hours, then were incubated with MTT (0.5 mg/ml in medium) for a further 4 hours before determination of formazan production.
Primary mouse keratinocytes were isolated from BALB/c newborn mouse skin. […]
The assay measures insoluble cross-linked protein envelopes as described (Hough-Monroe et al. Analytical biochem., 199, 25-28, 1991), with modifications as follows. […] Absorbance of eluate was measured on a Titertek plate reader at 600 nm.
Cells were seeded at low density and were treated with MC for 3 days. Cells were then counted and increase in cell number was compared to untreated controls, or cells were processed for cross-linked protein.
Inhibitors were added 30 mins before MC or stsp (FIG. 6). Cross-linked protein was measured by the cornified envelope assay, described in Example 2.

As for `CN[C@@H]1C[C@H]2O[C@@](C)([C@@H]1OC)n1c3ccccc3c3c4c(c5c6ccccc6n2c5c31)C(=O)NC4` [staurosporine, reference compound], the “effect of transglutaminase inhibitors on cross-linking activity” value is given as “as is the activity of staurosporine; also recorded: unlike that induced by the kinase inhibitor staurosporine”.
